# Values of other authors in patent publication US12637520B2, “Conjugation chemistry for catalytic antibody 38C2” (UNIVERSITY OF FLORIDA RESEARCH FOUNDATION, INCORPORATED, priority 2019, dated 2026).
# By UniProt entry, the sequences of proteins in these tests, tags left out. Residues count along the entry.
# UniProt P15328, 25-234: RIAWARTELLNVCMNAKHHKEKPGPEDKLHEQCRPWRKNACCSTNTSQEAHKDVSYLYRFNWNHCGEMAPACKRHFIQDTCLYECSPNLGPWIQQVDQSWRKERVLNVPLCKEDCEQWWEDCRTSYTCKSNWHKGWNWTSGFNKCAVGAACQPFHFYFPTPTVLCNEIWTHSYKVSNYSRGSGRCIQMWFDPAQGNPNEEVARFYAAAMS
# At least one compound was matched to its structure with a doubt left.
# Target: folate receptor 1 (FOLR1 or folate receptor a) (Homo sapiens, UniProt P15328)
# Details: cited from earlier work
structure (smiles),measurement,value
Nc1nc(=O)c2nc(CNc3ccc(C(=O)N[C@@H](CCC(=O)O)C(=O)O)cc3)cnc2[nH]1 [Folate],affinity for FOLR1,nanomolar affinity
